From PubChem BioAssay AID493014 (National Center for Advancing Translational Sciences (NCATS), 2011)
Some of the results follow. Shown are side measurements of this screen, not its main read-out; they come without a call. The list favours compounds with an active or inconclusive main result. The note in brackets gives the kind of curve behind each potency; many fits are weak.

Assay: qHTS Assay to Find Inhibitors of Chronic Active B-Cell Receptor Signaling
Conditions: ABC-DLBCL IkBa-CBG/CBR reporter, luminescence ratio (green luciferase fused to IkBa over red control in TMD8 lymphoma cells), 4 h
Procedure, shortened: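 TMD8 human ABC-DLBCL cells with doxycycline-inducible IκBα–green luciferase fusion and unfused red luciferase, in 0.5% FBS medium; compounds up to 46 uM, 4 h at 37C. Green/red luminescence ratio, filter-overlap corrected, fitted to concentration-response curves.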

[1] = measured here: CBR red luminescence, cell number
[2] = measured here: IkBa-CBG green luminescence

| Compound | AC50 [1] | AC50 [2] |
| --- | --- | --- |
| CS(=O)(=O)Nc1cccc(C2=NN(C(=O)c3ccco3)C(c3cccs3)C2)c1 (stereo not drawn) | 11.2 µM [falling, single point] | – |
| COCCN1CCN(c2cc(-c3ccccc3)nc3cc(-c4cccc(F)c4)nn23)CC1 | 29.1 µM [falling, single point] | – |
| COc1cccc(NC(=O)NCCCSC2CCCCC2)c1 | 35.5 µM [falling, single point] | – |
| O=C(COC(=O)C1CC(=O)N(c2nc(-c3ccccc3)cs2)C1)c1ccccc1 (stereo not drawn) | 5.8 µM [falling, single point] | – |
| COC(=O)c1cn(C(=O)c2ccccc2Cl)c2ccccc12 | 12.6 µM [rising, partial curve, poor fit] | – |
| CCN(C(=O)COC(=O)c1ccccc1SCC(=O)N1CCCC1)C1CCS(=O)(=O)C1 (stereo not drawn) | 14.6 µM [falling, partial curve, poor fit] | – |
| O=Cc1c(OCc2ccccc2)ccc2ccccc12 | 35.5 µM [falling, single point] | – |
| NC(=O)c1cnn(-c2cccc(Cl)c2)c1N | 2 µM [rising, full curve, poor fit] | – |
| COc1ccc(C(=O)/C=C/c2ccc(OC3CSC3)cc2)cc1 | 32.6 µM [falling, single point] | – |
| Clc1cccc2sc(N3CCCC3)nc12 | 3.66 µM [rising, full curve, poor fit] | – |
| O=C(NCCCl)c1ccc(OCc2ccccc2)cc1Cl | 12.6 µM [falling, partial curve] | – |
| COc1c(Cl)cccc1-c1cn2ccc(C)cc2n1 | 35.5 µM [falling, single point] | – |
| Cc1cc(Cl)ccc1Nc1ncccc1C(N)=O | 7.31 µM [rising, partial curve, poor fit] | – |
| CCOc1ccc(N2CC(NC(=O)C(=O)c3c[nH]c4ccccc34)CC2=O)cc1 (stereo not drawn) | 12.6 µM [falling, partial curve, poor fit] | – |
| CC1=CC2=NC(=O)/C(=C\c3cccn3CCOc3ccccc3C)C(=N)N2O1 | 28.2 µM [falling, single point] | – |
| CCCCn1c(-c2ccccc2C)nc2cc3[nH]c(=O)c(C(C)C)nc3cc21 | 14.1 µM [falling, partial curve] | 10 µM [rising, partial curve, poor fit] |
| CC(C)(C)c1cc(N)n2nc(C(C)(C)C)cc2n1 | 1 µM [rising, full curve] | – |
| CCC1(CC)NC(=O)N(CC(=O)N2N=C(c3ccc(Cl)cc3)CC2c2ccco2)C1=O (stereo not drawn) | 1 µM [rising, full curve, poor fit] | 10 µM [falling, partial curve, poor fit] |
| CCc1ccc(Sc2cc(C(=O)NCc3ccccc3OC)c3ccccc3n2)cc1 | 3.98 µM [rising, partial curve, poor fit] | – |
| Oc1nc(Nc2ccc(F)cc2)sc1/C=C1\C=Nc2ccccc21 | 10 µM [falling, partial curve, poor fit] | – |

| Compound | AC50 [1] | AC50 [2] |
| --- | --- | --- |
| Cc1cc(=O)n2[nH]c(SCc3ccccc3Cl)nc2n1 | 10 µM [falling, partial curve] | – |
| CCCCn1c(N)c(N(CC(C)C)C(=O)C2CC(=O)N(c3ccc(C)cc3)C2)c(=O)[nH]c1=O (stereo not drawn) | 32.6 µM [falling, single point] | – |
| O=C(CC(c1ccccc1)(c1ccccc1)c1ccccc1)N[C@@H](Cc1ccccc1)C(=O)O | 1.26 µM [falling, full curve, poor fit] | – |
| Cc1ccccc1Cn1c(CN2CCN(C(=O)c3ccco3)CC2)nc2c1c(=O)n(C)c(=O)n2C | 25.9 µM [rising, single point] | – |
| CC(Sc1nnc(N)s1)C(=O)Nc1ccc(N2CCOCC2)cc1 (stereo not drawn) | 23.1 µM [rising, single point] | – |
| c1ccc(SCc2nc(-c3ccccn3)no2)cc1 | 0.731 µM [falling, full curve, poor fit] | – |
| CC(C)C[C@H](NC(=O)N1CCn2c1nc1ccccc12)C(=O)N[C@@H](C(=O)O)c1ccccc1 | 3.16 µM [rising, full curve, poor fit] | – |
| COC(=O)CNc1c(-c2ccccc2)nc2ccc(Br)cn12 | 4.61 µM [falling, partial curve] | – |
| CC(C)(C)c1ccc(C(=O)OCCNC(=O)c2c(Cl)nc3ccccn23)cc1 | 1.46 µM [falling, partial curve, poor fit] | – |
| CCN(c1ccccc1)S(=O)(=O)c1cc(C(=O)Nc2ccc(F)c(F)c2)ccc1F | 29.1 µM [falling, single point] | 6.51 µM [rising, partial curve] |
| O=C(Nc1ccc(Br)cc1)c1ccc(F)c(S(=O)(=O)NCc2cccs2)c1 | 16.4 µM [falling, partial curve] | – |
| CCCCCNC(=O)c1cccnc1SCC(=O)Nc1ccccc1OC | – | 25.9 µM [falling, partial curve, poor fit] |
| CC(=O)N1c2c(cc(Br)cc2S(=O)(=O)N2CCOCC2)CC1C (stereo not drawn) | 29.1 µM [rising, single point] | – |
| O=C(CSc1nnc(-c2ccccn2)o1)Nc1ccccc1C(F)(F)F | 25.1 µM [falling, single point] | – |
| O=C(CCC(=O)Nc1ccccc1)NNC(=O)COc1ccccc1 | 5.8 µM [rising, full curve] | – |
| CC(=O)Nc1cccc(C(=O)N2CCN(S(=O)(=O)Cc3ccccc3)CC2)c1 | 0.0184 µM [falling, full curve, poor fit] | – |
| COc1ccccc1N1CCN(C(=O)c2cccc(S(=O)(=O)N3CCCCCC3)c2)CC1 | 2.06 µM [rising, partial curve, poor fit] | – |
| COc1nc(Nc2ccc([N+](=O)[O-])cc2)nc(NC(C)C)n1 | – | 4.61 µM [rising, partial curve, poor fit] |
| N=c1sccn1CC(=O)Nc1ccc([N+](=O)[O-])cc1Cl | 35.5 µM [falling, single point] | – |
| Cc1ccc2c(CC(=O)Nc3sccc3C(N)=O)coc2c1 | 0.447 µM [falling, full curve, poor fit] | – |

Pulled by structure from the list above, 2 records:

| Compound | AC50 [1] | AC50 [2] |
| --- | --- | --- |
| Cc1ccc2c(CC(=O)Nc3sccc3C(N)=O)coc2c1 | 0.447 µM [falling, full curve, poor fit] | – |
| CC(Sc1nnc(N)s1)C(=O)Nc1ccc(N2CCOCC2)cc1 (stereo not drawn) | 23.1 µM [rising, single point] | – |
